Test results: the supplement of paper PMC8728848
This is one part of the list.

Legend:
Assay in all cases: glycan array binding signal (z-score within array); higher = stronger binding
Settings in all cases: glycan notation: IUPAC condensed, linker removed
GlcNAc(b1-3)Man = biological target: GlcNAc(b1-3)Man
How it was run: (§1)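 From the Consortium for Functional Glycomics database, 3228 arrays were curated, keeping only those whose protein sequence was available. Binding is given as a within-array Z-score averaged across arrays sharing a protein sequence and across linkers. Negative Z-scores can be read as non-binding.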

[1] = biological target: GlcNAc(b1-3)[GlcNAc(b1-4)][GlcNAc(b1-6)]GlcNAc
How it was run: as §1

[2] = biological target: GlcNAc(b1-3)[GlcNAc(b1-6)]Gal(b1-4)GlcNAc
How it was run: as §1

[3] = biological target: GlcNAc(b1-3)[GlcNAc(b1-6)]GalNAc
How it was run: as §1

[4] = biological target: GlcNAc(b1-4)Gal(b1-4)GlcNAc
How it was run: as §1

GlcNAc(b1-4)GlcNAc = biological target: GlcNAc(b1-4)GlcNAc
How it was run: as §1

[5] = biological target: GlcNAc(b1-4)GlcNAc(b1-4)GlcNAc
How it was run: as §1

[6] = biological target: GlcNAc(b1-4)GlcNAc(b1-4)GlcNAc(b1-4)GlcNAc(b1-4)GlcNAc
How it was run: as §1

[7] = biological target: GlcNAc(b1-4)GlcNAc(b1-4)GlcNAc(b1-4)GlcNAc(b1-4)GlcNAc(b1-4)GlcNAc
How it was run: as §1

[8] = biological target: GlcNAc(b1-4)[GlcNAc(b1-6)]GalNAc
How it was run: as §1

[9] = biological target: GlcNAc(b1-6)Gal(b1-4)GlcNAc
How it was run: as §1

GlcNAc(b1-6)GalNAc = biological target: GlcNAc(b1-6)GalNAc
How it was run: as §1

[10] = biological target: GlcNAc6S(b1-3)Gal(b1-4)GlcNAc
How it was run: as §1

Kdn(a2-3)Gal(b1-3)GalNAc = biological target: Kdn(a2-3)Gal(b1-3)GalNAc
How it was run: as §1

Kdn(a2-3)Gal(b1-3)GlcNAc = biological target: Kdn(a2-3)Gal(b1-3)GlcNAc
How it was run: as §1

Kdn(a2-3)Gal(b1-4)Glc = biological target: Kdn(a2-3)Gal(b1-4)Glc
How it was run: as §1

Kdn(a2-3)Gal(b1-4)GlcNAc = biological target: Kdn(a2-3)Gal(b1-4)GlcNAc
How it was run: as §1

[11] = biological target: Kdn(a2-3)Gal(b1-4)[Fuc(a1-3)]GlcNAc
How it was run: as §1

Kdn(a2-6)Gal(b1-4)GlcNAc = biological target: Kdn(a2-6)Gal(b1-4)GlcNAc
How it was run: as §1

[12] = biological target: Man(a1-2)Man(a1-2)Man(a1-3)Man
How it was run: as §1

[13] = biological target: Man(a1-2)Man(a1-2)Man(a1-6)[Man(a1-3)]Man
How it was run: as §1

Man(a1-2)Man(a1-3)Man = biological target: Man(a1-2)Man(a1-3)Man
How it was run: as §1

[14] = biological target: Man(a1-2)Man(a1-3)[Man(a1-2)Man(a1-6)]Man
How it was run: as §1

B1: FimA (Actinomyces oris) (protein)
chain: MHHHHHHSSGVDLGTENLYFQSNAETPNYGNIKTDATGSLVIHKHLTGGGKDIGTPTGTAQNADDKGPAVEGVVFTAYPITDINLKDPAGWDTISNLSRTGVPDSACANPAAPTLGAHQFGTPKVSPATTKEGLATITEMPVQAYLVCETTTPGDIVQKAKPFVVTIPHPNTAAGADGQWIYDVNVYPKNEAIDVDKTIQAQKLNGYGVGSLIKFPVESTAPTLDAKSFYKYFQLKDTLDERLSEVTATDVSLEGTPLQPTDYKVETKQQTVTVTFTAEGLKKIKAAPGKKVSAVFQGKVTKAGNGAITNRAQVISDTLYAEQPPTPETPPTDPENPPTSDEVISRWGDLSIKKVDTHQQGQTKAGLQGAQFQLYKAKNAYANTCSNEKEGAPIAINGQTTLTTDAQGAIDIKGLFISDSIDGADRDNQVNAMERCYVLVETKAPAGYVLPAGNGAATPVKVKAGEETTDNVTVENTKQSVPGLPLTG
glycan array binding signal (z-score) (GlcNAc(b1-3)Man): -0.844
glycan array binding signal (z-score) [1]: 1.35
glycan array binding signal (z-score) [2]: 0.138
glycan array binding signal (z-score) [3]: -0.637
glycan array binding signal (z-score) [4]: -0.479
glycan array binding signal (z-score) (GlcNAc(b1-4)GlcNAc): -0.621
glycan array binding signal (z-score) [5]: 0.123
glycan array binding signal (z-score) [6]: -0.792
glycan array binding signal (z-score) [7]: -0.704
glycan array binding signal (z-score) [8]: -0.564
glycan array binding signal (z-score) [9]: -0.73
glycan array binding signal (z-score) (GlcNAc(b1-6)GalNAc): -0.54
glycan array binding signal (z-score) [10]: -0.198
glycan array binding signal (z-score) (Kdn(a2-3)Gal(b1-3)GalNAc): -0.773
glycan array binding signal (z-score) (Kdn(a2-3)Gal(b1-3)GlcNAc): 0.83
glycan array binding signal (z-score) (Kdn(a2-3)Gal(b1-4)Glc): -0.26
glycan array binding signal (z-score) (Kdn(a2-3)Gal(b1-4)GlcNAc): -0.895
glycan array binding signal (z-score) [11]: -0.158
glycan array binding signal (z-score) (Kdn(a2-6)Gal(b1-4)GlcNAc): -0.687
glycan array binding signal (z-score) [12]: 4.88
glycan array binding signal (z-score) [13]: -0.561
glycan array binding signal (z-score) (Man(a1-2)Man(a1-3)Man): -0.177
glycan array binding signal (z-score) [14]: -0.987
